Test results published in paper doi:10.1101/2021.10.26.465776.

T1: BirA-tagged Aladin (human) (UniProt Q9NRG9)
T1 sequence: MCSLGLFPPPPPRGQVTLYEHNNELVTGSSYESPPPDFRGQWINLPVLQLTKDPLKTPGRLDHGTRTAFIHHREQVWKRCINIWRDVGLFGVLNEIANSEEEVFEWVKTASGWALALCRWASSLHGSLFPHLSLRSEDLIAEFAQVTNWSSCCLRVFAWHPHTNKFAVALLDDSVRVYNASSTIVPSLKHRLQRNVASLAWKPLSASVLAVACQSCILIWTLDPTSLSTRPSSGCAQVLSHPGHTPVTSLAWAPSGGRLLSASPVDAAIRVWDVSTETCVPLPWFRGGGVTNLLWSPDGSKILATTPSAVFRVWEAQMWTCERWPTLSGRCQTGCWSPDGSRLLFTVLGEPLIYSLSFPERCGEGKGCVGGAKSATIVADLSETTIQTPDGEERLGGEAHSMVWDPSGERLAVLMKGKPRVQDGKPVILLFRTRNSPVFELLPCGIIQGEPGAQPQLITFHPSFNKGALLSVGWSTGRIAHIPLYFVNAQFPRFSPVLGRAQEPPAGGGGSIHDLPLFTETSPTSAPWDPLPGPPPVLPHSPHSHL


Molecular target: T1, BirA-tagged Aladin (human)
Test: proximity labelling

| binding | Binder |
| --- | --- |
| binds | Nup35 (protein, UniProt Q8NFH5 1-326) MAAFAVEPQGPALGSEPMMLGSPTSPKPGVNAQFLPGFLMGDLPAPVTPQPRSISGPSVGVMEMRSPLLAGGSPPQPVVPAHKDKSGAPPVRSIYDDISSPGLGSTPLTSRRQPNISVMQSPLVGVTSTPGTGQSMFSPASIGQPRKTTLSPAQLDPFYTQGDSLTSEDHLDDSWVTVFGFPQASASYILLQFAQYGNILKHVMSNTGNWMHIRYQSKLQARKALSKDGRIFGESIMIGVKPCIDKSVMESSDRCALSSPSLAFTPPIKTLGTPTQPGSTPRISTMRPLATAYKASTSDYQVISDRQTPKKDESLVSKAMEYMFGW |
| binds | NDC1 (protein, UniProt Q9BTX1 1-674) MATAVSRPCAGRSRDILWRVLGWRIVASIVWSVLFLPICTTVFIIFSRIDLFHPIQWLSDSFSDLYSSYVIFYFLLLSVVIIIISIFNVEFYAVVPSIPCSRLALIGKIIHPQQLMHSFIHAAMGMVMAWCAAVITQGQYSFLVVPCTGTNSFGSPAAQTCLNEYHLFFLLTGAFMGYSYSLLYFVNNMNYLPFPIIQQYKFLRFRRSLLLLVKHSCVESLFLVRNFCILYYFLGYIPKAWISTAMNLHIDEQVHRPLDTVSGLLNLSLLYHVWLCGVFLLTTWYVSWILFKIYATEAHVFPVQPPFAEGSDECLPKVLNSNPPPIIKYLALQDLMLLSQYSPSRRQEVFSLSQPGGHPHNWTAISRECLNLLNGMTQKLILYQEAAATNGRVSSSYPVEPKKLNSPEETAFQTPKSSQMPRPSVPPLVKTSLFSSKLSTPDVVSPFGTPFGSSVMNRMAGIFDVNTCYGSPQSPQLIRRGPRLWTSASDQQMTEFSNPSPSTSISAEGKTMRQPSVIYSWIQNKREQIKNFLSKRVLIMYFFSKHPEASIQAVFSDAQMHIWALEGLSHLVAASFTEDRFGVVQTTLPAILNTLLTLQEAVDKYFKLPHASSKPPRISGSLVDTSYKTLRFAFRASLKTAIYRITTTFGEHLNAVQASAEHQKRLQQFLEFKE |

These are yes or no findings as the source states them, for the method shown. In cells and extracts the contact can be indirect. Here binding means that the protein was enriched with, or labelled near, the bait; the list need not be complete. Tags and fused reporters may be left off the sequences shown.
